# In US20030165995A1 (Takeda / Millennium, published 2003):
# Sequences of proteins named here, by UniProt entry; tags and fusion partners are left off. A change or cut given only in a name is not applied to a line headed by its entry.
# UniProt O00574: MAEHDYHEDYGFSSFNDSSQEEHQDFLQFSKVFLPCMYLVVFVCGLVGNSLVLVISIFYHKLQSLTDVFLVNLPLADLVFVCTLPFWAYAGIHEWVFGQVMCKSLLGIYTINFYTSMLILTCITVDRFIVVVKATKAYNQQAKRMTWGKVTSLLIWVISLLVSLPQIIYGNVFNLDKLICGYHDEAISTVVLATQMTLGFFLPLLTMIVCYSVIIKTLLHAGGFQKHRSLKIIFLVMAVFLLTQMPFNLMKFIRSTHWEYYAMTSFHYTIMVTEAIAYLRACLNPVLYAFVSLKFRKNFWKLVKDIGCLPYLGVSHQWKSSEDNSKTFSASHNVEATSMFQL
# No constants are given. Whether binding was seen depends on the method and setting. Some results given as binding are weak or reduced against the parent protein; the word gives no strength. Where a sequence is shown, tags or fusion partners need not be part of it.
# T1: human Bonzo with N-terminal hemagglutinin (HA) epitope, expressed on transfected L1.2 cells (Bonzo/L1.2 cells) (human) (UniProt O00574)
# T1 sequence: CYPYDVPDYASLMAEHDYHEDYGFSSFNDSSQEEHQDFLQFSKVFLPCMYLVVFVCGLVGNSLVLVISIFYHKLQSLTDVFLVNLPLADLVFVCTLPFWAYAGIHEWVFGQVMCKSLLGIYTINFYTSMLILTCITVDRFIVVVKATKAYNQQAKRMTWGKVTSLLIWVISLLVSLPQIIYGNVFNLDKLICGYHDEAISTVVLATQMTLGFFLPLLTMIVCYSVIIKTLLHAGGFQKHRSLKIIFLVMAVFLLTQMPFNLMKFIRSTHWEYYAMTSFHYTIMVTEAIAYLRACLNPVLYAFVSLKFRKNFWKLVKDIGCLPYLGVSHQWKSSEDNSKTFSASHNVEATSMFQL
# Target: T1, human Bonzo with N-terminal hemagglutinin (HA) epitope, expressed on transfected L1.2 cells (Bonzo/L1.2 cells) (human)
# Experiment: radioligand binding on Bonzo/L1.2 cells
binder,measurement,value
"purified recombinant His-tagged SExCkine (entire predicted extracellular domain, amino acid residues 1 to 202 of SEQ ID NO:4) (ligand, heavily glycosylated; iodinated with 125I where used as tracer, Expressed in 293T cells, purified on wheat germ agglutinin and NiNTA; also called purified recombinant SExCkine (CXCL16); recombinant His-tagged SExCkine protein; not shown: C-terminal His tag from the pEF-His vector) NEGSVTGSCYCGKRISSDSPPSVQFMNRLRKHLRAYHRCLYYTRFQLLSWSVCGGNKDPWVQELMSCLDLKECGHAYSGIVAHQKHLLPTSPPISQASEGASSDIHTPAQMLLSTLQSTQRPTLPVGSLSSDKELTRPNETTIHTAGHSLAVGPEAGENQKQPEKNAGPTART",binding,binds
